According to publication doi:10.1101/2023.09.29.560113:
No constants are given. Whether binding was seen depends on the method and setting. Binding calls can cover weak binding; strength is not graded here. For some of these results: Binding seen in cells or lysates may run through a third protein. For some of these results: Sequences can lack the tags named with a protein.

Experiments:
[1] = biological target: T1, NET4A, rBiFC fusion (Arabidopsis thaliana) (UniProt F4KEW8); experiment: split reporter
T1 sequence: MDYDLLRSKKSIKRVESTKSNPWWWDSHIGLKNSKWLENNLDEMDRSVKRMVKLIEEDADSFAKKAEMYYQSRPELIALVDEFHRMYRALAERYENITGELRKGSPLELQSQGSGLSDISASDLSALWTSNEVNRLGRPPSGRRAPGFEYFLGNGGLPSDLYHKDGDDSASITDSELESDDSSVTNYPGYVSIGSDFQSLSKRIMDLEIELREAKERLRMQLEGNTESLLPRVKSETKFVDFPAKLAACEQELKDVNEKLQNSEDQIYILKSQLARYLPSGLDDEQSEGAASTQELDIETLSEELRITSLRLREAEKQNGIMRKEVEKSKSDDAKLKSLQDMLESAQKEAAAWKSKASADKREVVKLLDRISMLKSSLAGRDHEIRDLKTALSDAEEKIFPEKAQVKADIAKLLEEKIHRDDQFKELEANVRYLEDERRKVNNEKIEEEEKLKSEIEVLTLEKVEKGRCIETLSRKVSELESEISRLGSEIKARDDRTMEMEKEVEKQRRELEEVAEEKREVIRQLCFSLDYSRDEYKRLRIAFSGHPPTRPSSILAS

[2] = biological target: T2, NET4A-Cub (Arabidopsis thaliana) (UniProt F4KEW8); experiment: two-hybrid
T2 sequence: T1 sequence

| binding [1] | binding [2] | Substance |
| --- | --- | --- |
| no binding | – | At2g15042, rBiFC fusion (Arabidopsis thaliana) |
| binds | – | At4g01245, rBiFC fusion (Arabidopsis thaliana) |
| – | no binding | At2g15042, mbSUS fusion (Arabidopsis thaliana) |
| – | binds | At4g01245, mbSUS fusion (Arabidopsis thaliana) |
